Experimental findings from paper PMC9515091 are described below.

Results are given in words; binding and its absence hold for the method and conditions named. Some results given as binding are weak or reduced against the parent protein; the word gives no strength.

The target of the experiment is T1, AccD (acetyl-CoA carboxylase subunit D) (UniProt P0A9Q5).
T1 sequence: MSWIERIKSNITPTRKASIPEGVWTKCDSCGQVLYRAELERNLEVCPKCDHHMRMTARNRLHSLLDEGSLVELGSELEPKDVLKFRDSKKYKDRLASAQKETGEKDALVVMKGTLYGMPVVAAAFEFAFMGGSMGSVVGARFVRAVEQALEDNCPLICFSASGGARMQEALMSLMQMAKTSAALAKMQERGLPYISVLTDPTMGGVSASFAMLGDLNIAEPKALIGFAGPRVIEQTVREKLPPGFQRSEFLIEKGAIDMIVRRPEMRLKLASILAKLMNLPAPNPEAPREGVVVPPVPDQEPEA
Briefly: co-purification (Ni affinity, then anion exchange); lysate of E. coli co-expressing C-terminally 6His-tagged AccD and AccA on a HisTrap HP column (20 mM Tris-HCl pH 8.0, 500 mM NaCl, 10% glycerol, imidazole gradient), then HiTrap Capto Q.

B1: AccA (acetyl-CoA carboxylase subunit A) (enzyme, UniProt P0ABD5 1-319)
chain: MSLNFLDFEQPIAELEAKIDSLTAVSRQDEKLDINIDEEVHRLREKSVELTRKIFADLGAWQIAQLARHPQRPYTLDYVRLAFDEFDELAGDRAYADDKAIVGGIARLDGRPVMIIGHQKGRETKEKIRRNFGMPAPEGYRKALRLMQMAERFKMPIITFIDTPGAYPGVGAEERGQSEAIARNLREMSRLGVPVVCTVIGEGGSGGALAIGVGDKVNMLQYSTYSVISPEGCASILWKSADKAPLAAEAMGIIAPRLKELKLIDSIIPEPLGGAHRNPEAMAASLKAQLLADLADLDVLSTEDLKNRRYQRLMSYGYA
Turning to B1, the binding result is “binds”.
